{"source": "patent US8735569B2", "about": "“Nucleoside phosphoramidates” (Gilead Pharmasset LLC, priority 2009, dated 2014)", "format_in_all_cases": "physicochemical", "key": {"[1]": {"experiment": "Stability at elevated temperatures and relative humidity", "procedure": "A sample of RP-4 was stored in a humidity chamber at 40° C. and 75% relative humidity for one week, and the sample was reanalyzed by XRPD. […] This should be contrasted to a sample of 4, which deliquesced within about 16 hours upon storage at 40° C. and 75% relative humidity. Indeed, an illustration of the deliquescent nature of 4 is illustrated by the following. A sample of 4 was passed through a 250 μm sieve then samples were stored at 40° C./75% RH and 25° C./53% relative humidity and visual observations were taken at regular intervals.\nUpon storage at 40° C. and 75% relative humidity a sample of SP-4 deliquesced inside 16 hours. For instance, a sample of SP-4 was ground with a pestle and mortar, and then successively passed through 500 and 250 μm sieves to yield the sample as a fine powder. Samples of this material were stored at 40° C. and 75% relative humidity and 25° C. and 53% RH and visual observations were taken at regular intervals."}, "[2]": {"experiment": "Thermodynamic aqueous solubility", "conditions": "aqueous suspension after 24 hours at 25° C.", "procedure": "Aqueous solubility was determined by suspending a sufficient amount of compound in water to give a maximum final concentration of >10 mg·ml^−1 of the parent free-form of the compound. The suspension was equilibrated at 25° C. for 24 hours then the pH was measured. The suspension was then filtered through a glass fiber C filter into a 96 well plate. The filtrate was then diluted by a factor of 101. Quantitation was by HPLC with reference to a standard solution of approximately 0.1 mg·ml^−1 in DMSO. Different volumes of the standard, diluted and undiluted sample solutions were injected. The solubility was calculated using the peak areas determined by integration of the peak found at the same retention time as the principal peak in the standard injection.\nAnalysis was performed under the above-noted conditions on an Agilent HP1100 series system equipped with a diode array detector and using ChemStation software vB.02.01-SR1."}, "[3]": {"experiment": "Gravimetric vapour sorption (GVS)", "procedure": "Sorption isotherms were obtained using a SMS DVS Intrinsic moisture sorption analyzer, controlled by SMS Analysis Suite software. The sample temperature was maintained at 25° C. by the instrument controls. The humidity was controlled by mixing streams of dry and wet nitrogen, with a total flow rate of 200 ml·min^−1. The relative humidity was measured by a calibrated Rotronic probe (dynamic range of 1.0-100% RH), located near the sample. The weight change, (mass relaxation) of the sample as a function of % RH was constantly monitored by the microbalance (accuracy ±0.005 mg).\nTypically 5-20 mg of sample was placed in a tared mesh stainless steel basket under ambient conditions. The sample was loaded and unloaded at 40% RH and 25° C. (typical room conditions). A moisture sorption isotherm was performed as outlined below (2 scans giving 1 complete cycle). The standard isotherm was performed at 25° C. at 10% RH intervals over a 0.5-90% RH range.\nThe sample was recovered after completion of the isotherm and re-analyzed by XRPD.\nA sample of SP-4 was ground with a pestle and mortar, and then successively passed through 500 and 250 μm sieves to yield the sample as a fine powder that was then analyzed using a modified single cycle method. The sample was taken from 40% RH (approximately ambient) to 60% RH, instead of 90% for the standard method, and then cycled to 0% and back to 40% RH."}}, "note": "At least one structure is not confirmed: it was looked up by name or label, or the drawing left a doubt."}
{"molecule": "CC(C)OC(=O)[C@H](C)N[P@](=O)(OC[C@H]1O[C@@H](n2ccc(=O)[nH]c2=O)[C@](C)(F)[C@@H]1O)Oc1ccccc1", "note": "[SP-4, (S)-Isopropyl 2-((S)-(((2R,3R,4R,5R)-5-(2,4-dioxo-3,4-dihydropyrimidin-1(2H)-yl)-4-fluoro-3-hydroxy-4-methyltetrahydrofuran-2-yl)methoxy)(phenoxy)phosphorylamino)propanoate]", "values": [{"measurement": "change in solid form by XRPD after storage", "setting": "[1]; 25° C. and 53% RH for 104 hours", "result": "no form change had occurred"}, {"measurement": "time to deliquescence upon storage", "setting": "[1]; 40° C. and 75% relative humidity", "result": "≤ 16", "unit": "h"}, {"measurement": "pH of Unfiltered mixture", "setting": "[2]", "result": 6.88}, {"measurement": "hygroscopicity by GVS analysis", "setting": "[3]; 25° C.", "result": "non-hygroscopic up to 60% RH"}, {"measurement": "reversible uptake of water", "setting": "[3]; from 0 to 60% RH, modified single cycle method, ground and sieved sample", "result": "~0.2", "unit": "% by weight"}]}
